Values are relative to the signal before dosing, not to a vehicle control; the signal also falls without drug.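 Labels refer to human fibroblasts, largely primary: uterine (C12385, HUF), lung (H6013), bone (Hs27A), adrenal (HADF), skin (WS1), plus mammary HMF and breast cancer-associated Hs343T. Cancer lines are basal-like or mesenchymal-like triple-negative breast cancer. The paper counts as hits responses shifting over 3x the replicate standard deviation. The tissue of the other fibroblasts is not given here.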
Test system: MDAMB436
Experiment: relative JC-1 red fluorescence (viability) vs pre-drug, coculture with fibroblast (fraction); higher = more viable cancer cells
Experimental: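 JC-1 labelled TNBC cells cocultured 1:1 (1,500 cells each) with CellTrace Violet stained primary or stromal fibroblasts in 384-well plates in FluoroBrite medium, treated with one of 42 anticancer drugs at 0.1, 1, 10 or 100 uM. JC-1 red fluorescence (mitochondrial integrity in cancer cells only) was read by plate reader every 8 h for 72 h. Values are normalised to each well's pre-drug value. The stock of one drug was tenfold lower, so its dose labels may be too high.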

O=C(O)CCCc1ccc(N(CCCl)CCCl)cc1 [Chlorambucil]
relative JC-1 red fluorescence
Details	8 h	16 h	24 h	32 h	40 h	48 h	56 h	64 h	72 h
0.1 µM, coculture fibroblast: C12385	0.773	0.722	0.692	0.614	0.572	0.554	0.538	0.531	0.532
0.1 µM, coculture fibroblast: H6013	0.793	0.761	0.74	0.73	0.71	0.727	0.695	0.681	0.64
0.1 µM, coculture fibroblast: H6019	0.769	0.715	0.677	0.6004	0.5457	0.5218	0.4861	0.4534	0.4288
0.1 µM, coculture fibroblast: H6076	0.81	0.759	0.756	0.72	0.719	0.704	0.718	0.7177	0.707
0.1 µM, coculture fibroblast: H6231	0.7021	0.685	0.732	0.665	0.668	0.644	0.642	0.637	0.625
0.1 µM, coculture fibroblast: HADF	0.793	0.7368	0.6987	0.669	0.648	0.668	0.618	0.618	0.59
0.1 µM, coculture fibroblast: HCFa	0.778	0.748	0.724	0.696	0.671	0.691	0.627	0.622	0.572
0.1 µM, coculture fibroblast: HCPF	0.727	0.707	0.717	0.666	0.6751	0.66115	0.6557	0.6453	0.6493
0.1 µM, coculture fibroblast: HHSteC	0.824	0.819	0.818	0.786	0.795	0.818	0.771	0.752	0.706
0.1 µM, coculture fibroblast: HMF	0.712	0.677	0.687	0.66	0.677	0.655	0.68	0.668	0.676
0.1 µM, coculture fibroblast: HPFa	0.829	0.785	0.773	0.73	0.726	0.754	0.687	0.67	0.606
0.1 µM, coculture fibroblast: HUF	0.849	0.801	0.789	0.695	0.636	0.602	0.582	0.562	0.549
0.1 µM, coculture fibroblast: Hs5	0.737	0.735	0.751	0.715	0.74	0.7157	0.754	0.7376	0.7322
0.1 µM, coculture fibroblast: Hs27A	0.797	0.7843	0.77957	0.7727	0.769	0.8369	0.748	0.741	0.67
0.1 µM, coculture fibroblast: Hs343T	0.742	0.6979	0.695	0.665	0.667	0.645	0.657	0.652	0.653
0.1 µM, coculture fibroblast: WS1	0.769	0.703	0.672	0.598	0.566	0.55	0.536	0.516	0.505
1 µM, coculture fibroblast: C12385	0.807	0.691	0.632	0.556	0.497	0.473	0.443	0.425	0.415
1 µM, coculture fibroblast: H6013	0.823	0.717	0.673	0.6468	0.6149	0.616	0.5841	0.57	0.526
1 µM, coculture fibroblast: H6019	0.7416	0.6317	0.5968	0.5222	0.4697	0.452	0.43	0.4	0.378
1 µM, coculture fibroblast: H6076	0.782	0.661	0.633	0.599	0.567	0.542	0.544	0.5393	0.5219
1 µM, coculture fibroblast: H6231	0.787	0.697	0.668	0.623	0.585	0.555	0.538	0.51	0.49
1 µM, coculture fibroblast: HADF	0.8176	0.703	0.6477	0.5961	0.552	0.54166	0.49258	0.476	0.4375
1 µM, coculture fibroblast: HCFa	0.795	0.708	0.654	0.612	0.57	0.566	0.504	0.486	0.435
1 µM, coculture fibroblast: HCPF	0.861	0.768	0.698	0.642	0.598	0.556	0.518	0.494	0.467
1 µM, coculture fibroblast: HHSteC	0.8224	0.757	0.701	0.667	0.638	0.643	0.585	0.554	0.498
1 µM, coculture fibroblast: HMF	0.7984	0.6923	0.614	0.577	0.533	0.501	0.485	0.47	0.46
1 µM, coculture fibroblast: HPFa	0.845	0.785	0.734	0.679	0.655	0.652	0.573	0.534	0.459
1 µM, coculture fibroblast: HUF	0.823	0.718	0.673	0.589	0.532	0.501	0.476	0.455	0.445
1 µM, coculture fibroblast: Hs5	0.858	0.779	0.722	0.663	0.617	0.568	0.555	0.518	0.498
1 µM, coculture fibroblast: Hs27A	0.784	0.705	0.655	0.622	0.587	0.617	0.532	0.508	0.441
1 µM, coculture fibroblast: Hs343T	0.8172	0.728	0.677	0.646	0.614	0.587	0.561	0.546	0.532
1 µM, coculture fibroblast: WS1	0.788	0.686	0.629	0.554	0.497	0.466	0.438	0.4057	0.394
10 µM, coculture fibroblast: C12385	0.762	0.707	0.669	0.582	0.532	0.505	0.487	0.472	0.465
10 µM, coculture fibroblast: H6013	0.779	0.736	0.708	0.693	0.673	0.694	0.66	0.646	0.614
10 µM, coculture fibroblast: H6019	0.762	0.708	0.6745	0.599	0.546	0.523	0.497	0.472	0.455
10 µM, coculture fibroblast: H6076	0.71116	0.614	0.564	0.516	0.487	0.466	0.461	0.46	0.456
10 µM, coculture fibroblast: H6231	0.68892	0.578	0.624	0.541	0.545	0.527	0.521	0.512	0.503
10 µM, coculture fibroblast: HADF	0.7718	0.748	0.717	0.693	0.682	0.701	0.648	0.64	0.604
10 µM, coculture fibroblast: HCFa	0.791	0.781	0.759	0.723	0.708	0.723	0.67	0.663	0.614
10 µM, coculture fibroblast: HCPF	0.672	0.607	0.581	0.518	0.497	0.464	0.45	0.436	0.429
10 µM, coculture fibroblast: HHSteC	0.782	0.7547	0.735	0.701	0.691	0.712	0.65	0.634	0.578
10 µM, coculture fibroblast: HMF	0.7078	0.642	0.598	0.545	0.532	0.498	0.494	0.48	0.475
10 µM, coculture fibroblast: HPFa	0.883	0.822	0.803	0.772	0.76	0.765	0.692	0.66	0.585
10 µM, coculture fibroblast: HUF	0.811	0.719	0.668	0.59	0.5368	0.5056	0.483	0.468	0.467
10 µM, coculture fibroblast: Hs5	0.74	0.674	0.644	0.574	0.558	0.515	0.51	0.485	0.482
10 µM, coculture fibroblast: Hs27A	0.829	0.757	0.732	0.699	0.669	0.715	0.623	0.601	0.527
10 µM, coculture fibroblast: Hs343T	0.688	0.614	0.556	0.499	0.4758	0.44	0.442	0.436	0.445
10 µM, coculture fibroblast: WS1	0.771	0.708	0.669	0.577	0.532	0.501	0.479	0.448	0.429
100 µM, coculture fibroblast: C12385	0.8271	0.7316	0.652	0.576	0.52	0.49	0.462	0.429	0.407
100 µM, coculture fibroblast: H6013	0.819	0.70349	0.6372	0.626	0.593	0.5988	0.56442	0.5427	0.505
100 µM, coculture fibroblast: H6019	0.775	0.682	0.651	0.581	0.537	0.507	0.468	0.439	0.41
100 µM, coculture fibroblast: H6076	0.755	0.633	0.581	0.508	0.481	0.447	0.445	0.434	0.431
100 µM, coculture fibroblast: H6231	0.764	0.671	0.549	0.512	0.465	0.419	0.4	0.371	0.343
100 µM, coculture fibroblast: HADF	0.828	0.737	0.674	0.635	0.602	0.599	0.545	0.515	0.471
100 µM, coculture fibroblast: HCFa	0.779	0.689	0.65	0.613	0.5798	0.589	0.5321	0.519	0.4731
100 µM, coculture fibroblast: HCPF	0.785	0.688	0.595	0.527	0.476	0.425	0.387	0.363	0.333
100 µM, coculture fibroblast: HHSteC	0.832	0.741	0.697	0.6566	0.627	0.629	0.569	0.539	0.489
100 µM, coculture fibroblast: HMF	0.839	0.728	0.59	0.532	0.479	0.436	0.4	0.372	0.355
100 µM, coculture fibroblast: HPFa	0.856	0.837	0.85	0.81	0.789	0.786	0.712	0.686	0.612
100 µM, coculture fibroblast: HUF	0.8406	0.7135	0.678	0.6	0.549	0.514	0.487	0.462	0.449
100 µM, coculture fibroblast: Hs5	0.7776	0.692	0.607	0.532	0.5	0.455	0.442	0.413	0.398
100 µM, coculture fibroblast: Hs27A	0.7977	0.7144	0.667	0.6398	0.616	0.662	0.601	0.592	0.538
100 µM, coculture fibroblast: Hs343T	0.7506	0.636	0.528	0.465	0.434	0.4	0.377	0.366	0.364
100 µM, coculture fibroblast: WS1	0.821	0.742	0.692	0.621	0.573	0.55	0.524	0.4855	0.469

From the supplement of paper PMC6078165
